This is an account of results in PubChem BioAssay AID445 (National Center for Advancing Translational Sciences (NCATS), 2006).

SMILES strings stand for the structures. This is one part of the list. The main result of the screen is listed elsewhere. These columns were measured beside it and carry no call. Compounds called inactive in the main read-out are mostly missing here. Potencies come from curve fits of mixed quality, noted in brackets.

A short description of the experiment: IkB Signaling. The settings on record: ABC-DLBCL IkBa-CBG/CBR dual luciferase ratio (green luciferase fused to IkBa over red control in OCI-Ly3 lymphoma cells), 4 h. The gist of the method:
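Luminescence ratio of IκBα-fused green versus native red beetle luciferase in OCI-Ly3 cells, 4 h post-doxycycline with compound; red signal alone, scaled from basal (0%) to zero light (-100%), flagged nonspecific or cytotoxic effects.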

[1] abbreviates: measured here: control luc red channel unless noted.

Take `O=C(NCc1ccc2c(c1)OCO2)c1ccc(CS(=O)(=O)c2ccc(Br)cc2)o1`: the AC50 under setting [1] was 10 µM [falling, partial curve].

For `O=C(Cc1ccccc1)N(Cc1cccnc1)c1nc2ccc(Cl)cc2s1`, under setting [1], the AC50 was 25.1 µM [falling, single point].

For `CCn1c(COc2ccccc2C)nnc1SCC(=O)CC(=O)Nc1ccccc1`, under setting [1], the AC50 was 31.6 µM [falling, partial curve].

In the case of `Cc1ccc(CC2CC(=O)N(CCc3ccc4c(c3)OCO4)C2=O)cc1` (stereo unspecified), the AC50 under setting [1] was 15.8 µM [falling, partial curve].

On to `CCOC(=O)c1c(C)oc2ncnc(N3CCN(c4ccc(C)cc4C)CC3)c12`, for which the AC50 under setting [1] was 20 µM [falling, single point].

Regarding `Cn1c(=O)c2c(nc(Oc3ccc(C#N)cc3)n2Cc2ccc(Cl)cc2Cl)n(C)c1=O`, under setting [1], the half-maximal activity concentration (AC50) was 0.316 µM [falling, full curve, poor fit].

With `COc1ccccc1N1CCN(C(=O)c2c(-c3c(Cl)cccc3Cl)noc2C)CC1`, the AC50 under setting [1] was 20 µM [falling, partial curve].

For the compound `CCOC(=O)c1ccccc1NC(=O)Cn1c(=O)n(CCC(=O)NCc2ccccc2OC)c(=O)c2ccccc21`, under setting [1], the concentration at half-maximal activity (AC50) is 10 µM [falling, partial curve].

For `Cc1ccc(CNC(=O)c2oc3ccc(S(=O)(=O)N4CCC(C)CC4)cc3c2C)cc1`, the half-maximal activity concentration (AC50) under setting [1] was 7.94 µM [falling, full curve].

Consider `CCCCNC(=O)c1cc2c(=O)n3cccc(C)c3nc2s1`, for which, under setting [1], the AC50 was 1.26 µM [rising, full curve].

`Cc1cccc(N2CCN(C(=O)c3cc4n(n3)C(C(F)(F)F)CC(c3ccco3)N4)CC2)c1C` (stereo unspecified): the concentration at half-maximal activity (AC50) under setting [1] is 25.1 µM [falling, partial curve].

As for `Cc1ccccc1NC(=O)CSc1nc2ccc(NC(=O)c3ccccc3)cc2s1`, the AC50 under setting [1] is 12.6 µM [falling, partial curve].

Regarding `Cc1nc(NC(=O)c2ccco2)sc1C(=O)Nc1ccc(Br)cc1`, the AC50 by setting is: (measured here: IkB-luc green channel) 31.6 µM [falling, partial curve]; (measured here: control luc red channel) 20 µM [falling, partial curve].

Take `Cc1ccccc1CN1C(=O)C(O)(CC(=O)c2ccccc2)c2cc(Cl)ccc21` (stereo unspecified): the concentration at half-maximal activity (AC50) under setting [1] was 39.8 µM [falling, single point].

`Cc1oc(-c2ccc(C(=O)NCc3ccc(F)cc3)cc2)nc1CS(=O)c1ccccc1` (stereo unspecified): the concentration at half-maximal activity (AC50) under setting [1] was 20 µM [falling, partial curve].

For `CC(=O)c1cc2c(cc1N/C(=N/S(=O)(=O)c1ccccc1)c1ccc(Cl)cc1)OCO2`, under setting [1], the concentration at half-maximal activity (AC50) is 0.00794 µM [rising, full curve].

Regarding `O=C(Nc1cccc(-c2nc3ncccc3o2)c1)c1cc2ccccc2o1`, the half-maximal activity concentration (AC50) under setting [1] is 3.98 µM [falling, full curve].

As for `C=CCn1c(COc2ccc(CC)cc2)nnc1SC/C(O)=C(\C#N)c1nc2ccccc2[nH]1`, the AC50 under setting [1] was 2 µM [falling, full curve].

`Cc1cc(C)cc(C(=O)Nc2c(C(=O)Nc3ccccc3F)oc3ccccc23)c1`: under setting [1], the AC50 was 0.0794 µM [rising, full curve, poor fit].

As for `COc1ccccc1OCCn1c(C(C)Oc2ccccc2)nc2ccccc21` (stereo unspecified), under setting [1], the AC50 was 15.8 µM [falling, partial curve].

Regarding `COc1ccc2[nH]c3c(=O)n(CCCCC(=O)NCCN4CCCC4)c(=S)[nH]c3c2c1`, the AC50 under setting [1] was 12.6 µM [falling, partial curve].

In the case of `Cc1ccc(-n2ccnc(NCCc3ccc(S(N)(=O)=O)cc3)c2=O)c(C)c1`, the concentration at half-maximal activity (AC50) under setting [1] was 25.1 µM [falling, single point].

For the compound `Cc1ccc(N2CCN(S(=O)(=O)c3ccc4oc(=O)c5ncn(C)c5c4c3)CC2)c(C)c1`, the AC50 under setting [1] was 10 µM [falling, partial curve].

Regarding `CCOCCCNC(=O)Nc1cc(C(=O)NCc2ccc(C(C)C)cc2)ccc1N1CCCC1`, under setting [1], the half-maximal activity concentration (AC50) is 12.6 µM [falling, partial curve].

`COc1cc2c(cc1OC)C(COc1ccc(F)cc1)N(C(=O)c1ccccc1F)CC2` (stereo unspecified): under setting [1], the AC50 was 39.8 µM [falling, single point].

Turning to `Cc1cccc(-c2nnc(SCC(=O)N3CCCc4ccccc43)o2)c1`, the AC50 under setting [1] was 39.8 µM [falling, single point].

`CC(=O)c1ccc(C(=O)N(Cc2cccnc2)c2nc3c(Cl)cccc3s2)cc1`: the half-maximal activity concentration (AC50) under setting [1] is 39.8 µM [falling, single point].

With `Cc1ccc(S(=O)(=O)c2nnn3c2nc(NCc2cccs2)c2sccc23)cc1C`, the half-maximal activity concentration (AC50) under setting [1] was 10 µM [falling, partial curve].

As for `Cc1cccc(CS(=O)(=O)c2ncc(Cl)c(C(=O)Nc3nc4ccc(F)cc4s3)n2)c1`, under setting [1], the AC50 was 7.94 µM [falling, full curve].

For `Cn1nnnc1SCCNCc1ccccc1OCc1ccc(Cl)cc1Cl`, the AC50 under setting [1] is 39.8 µM [falling, single point].

For `CC(C)N(C(=O)c1cc2c(Cl)nc3ccccc3c2s1)C1CCCCC1`, the AC50 under setting [1] is 15.8 µM [falling, partial curve].

In the case of `COc1cccc2sc(N3CCN(C(=O)CS(=O)(=O)c4ccc(Cl)cc4)CC3)nc12`, the concentration at half-maximal activity (AC50) under setting [1] is 39.8 µM [falling, single point].

For the compound `COc1cccc(CNc2ncc(-c3ccc(Br)cc3)n2C)c1`, the half-maximal activity concentration (AC50) under setting [1] was 15.8 µM [falling, partial curve].

For the compound `O=C(NCCCn1ccnc1)c1cc2c(s1)CCCCC2`, under setting [1], the AC50 is 6.31 µM [falling, partial curve].

As for `O=C(NCCc1ccccc1)c1c(O)c2cccc3c2n(c1=O)CC3`, the half-maximal activity concentration (AC50) under setting [1] was 15.8 µM [falling, partial curve].

For the compound `COc1ccccc1-c1cc(C(F)(F)F)nc(NCc2ccco2)n1`, the concentration at half-maximal activity (AC50) under setting [1] is 20 µM [falling, partial curve].

Take `Nc1c(-c2nc(-c3ccccc3)cs2)c2ccccn2c1C(=O)c1ccc2c(c1)OCO2`: the AC50 under setting [1] is 1.26 µM [falling, full curve].

As to `CCN1C(C(=O)c2ccccc2)=C(OC(=O)COc2ccccc2)c2ccccc2S1(=O)=O`, under setting [1], the half-maximal activity concentration (AC50) is 12.6 µM [falling, partial curve].

With `Cc1cc(C)c(S(=O)(=O)N2CCN(Cc3nc4ccc(C)cc4o3)CC2)c(C)c1`, under setting [1], the concentration at half-maximal activity (AC50) is 39.8 µM [falling, partial curve].

On to `CCc1ccccc1Nc1cc(C(=O)NCCc2ccccc2)c2ccccc2n1`, for which the half-maximal activity concentration (AC50) under setting [1] was 7.94 µM [falling, partial curve].

Broadly, the AC50 is the midpoint of the concentration-response curve, whichever way the signal moves.
